From PMC9124216
Results are given in words; binding and its absence hold for the method and conditions named. In cells and extracts the contact can be indirect. Some results given as binding are weak or reduced against the parent protein; the word gives no strength.

The chains behind the UniProt entries cited, without tags or fusion partners. Residues count along the entry.
UniProt Q13444, residues 207-863: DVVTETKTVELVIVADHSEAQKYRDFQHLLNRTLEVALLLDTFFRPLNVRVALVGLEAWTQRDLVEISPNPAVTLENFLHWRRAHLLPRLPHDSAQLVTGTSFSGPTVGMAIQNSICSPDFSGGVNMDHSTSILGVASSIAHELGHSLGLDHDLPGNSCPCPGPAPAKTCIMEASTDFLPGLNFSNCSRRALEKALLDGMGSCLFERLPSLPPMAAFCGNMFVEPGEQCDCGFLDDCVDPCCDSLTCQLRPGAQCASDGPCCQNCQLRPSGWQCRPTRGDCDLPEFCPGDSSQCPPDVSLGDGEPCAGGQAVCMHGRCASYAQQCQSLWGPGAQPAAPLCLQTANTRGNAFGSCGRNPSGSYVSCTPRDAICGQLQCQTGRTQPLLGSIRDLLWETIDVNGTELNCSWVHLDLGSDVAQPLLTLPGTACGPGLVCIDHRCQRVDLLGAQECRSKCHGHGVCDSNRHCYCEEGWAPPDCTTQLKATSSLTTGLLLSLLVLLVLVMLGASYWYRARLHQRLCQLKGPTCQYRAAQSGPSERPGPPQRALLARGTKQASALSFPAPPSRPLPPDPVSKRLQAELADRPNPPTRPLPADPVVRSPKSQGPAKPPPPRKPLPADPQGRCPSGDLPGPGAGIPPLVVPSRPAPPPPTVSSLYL

Target: Disintegrin-metalloproteinase 15 (ADAM15) (human (endogenous in A549 and H1299)) (UniProt Q13444)
Assay: co-IP; endogenous proteins in lysates of parental A549 and H1299 cells; 1 µg IgG or specific monoclonal antibody, 4 °C 24 h, protein G beads, washed three times with RIPA buffer, western blot; also control and CD151-knockdown H1299 cells (Fig. 8E)

binding: binds
B1: Tetraspanin CD151 (protein, UniProt P48509 1-253)
chain: MGEFNEKKTTCGTVCLKYLLFTYNCCFWLAGLAVMAVGIWTLALKSDYISLLASGTYLATAYILVVAGTVVMVTGVLGCCATFKERRNLLRLYFILLLIIFLLEIIAGILAYAYYQQLNTELKENLKDTMTKRYHQPGHEAVTSAVDQLQQEFHCCGSNNSQDWRDSEWIRSQEAGGRVVPDSCCKTVVALCGQRDHASNIYKVEGGCITKLETFIQEHLRVIGAVGIGIACVQVFGMIFTCCLYRSLKLEHY
